Measured values from the supplement of paper PMC12889115.
The list shows a part of the results. These are raw signals, not scaled to a control.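 Primary screen: polymyxin B was added at a level permeabilizing Salmonella outer membranes while sparing inner membranes. DMSO wells, both with and without polymyxin B, established maximum growth. Plate-to-plate variation meant each plate was ranked on its own, and the lowest-OD600 compounds were selected as hits.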

Test system: Salmonella enterica serovar Typhimurium SL1344
Assay: bacterial growth OD600 after 18 h with compound and polymyxin B; higher = more bacterial growth (less inhibition)
Settings: 50 µM, Mueller-Hinton broth

| SMILES | bacterial growth OD600 (polymyxin B 1 µg/mL) | bacterial growth OD600 (polymyxin B 0.75 µg/mL) |
| --- | --- | --- |
| COc1ccc(C(CC(=O)NCc2cccc(C)n2)c2ccccc2)cc1 (configuration not stated) | 0.774 | – |
| Cc1ccccc1-c1cnc(-c2ccncc2)nc1C1CCCN(C(=O)C(C)N2CCOCC2)C1 (configuration not stated) | – | 0.779 |
| Cc1c(-c2ccccc2F)[nH]c2ccc(CNC(=O)CC3CCC(=O)N3)cc12 (configuration not stated) | 0.908 | – |
| CN(Cc1cccnc1)C(=O)CC1C(=O)NCCN1CCCc1ccccc1 (configuration not stated) | 0.86 | – |
| Cc1cc(C(=O)N2CCCC(C(=O)c3ccc(-c4ccccc4)cc3)C2)nn1C (configuration not stated) | 0.005 | – |
| CN1CCN([C@@H]2CCN(C(=O)/C=C/c3ccc(Cl)cc3)C[C@H]2O)CC1 | 0.941 | – |
| COc1ccc(CCN2CC(NC(=O)c3csc(C)n3)CC2=O)cc1 (configuration not stated) | 0.856 | – |
| O=C(/C=C/c1ccccc1F)N1CCC(C2(c3ccccn3)NC(=O)N(CC3CCCO3)C2=O)CC1 (configuration not stated) | – | 0.825 |
| O=C([C@@H]1C[C@H]1c1ccccc1)N1CCOc2ccc(CN3CCN(c4ccccn4)CC3)cc2C1 | – | 0.857 |
| COc1ccc2c(c1)SC(c1ccc(OC)c(C)c1)CCN2Cc1cccc2nccnc12 (configuration not stated) | – | 0.008 |
| O=C(NCCn1cccn1)c1cc(COc2ccc3c(c2)OCO3)[nH]n1 | 1.19 | – |
| O=C(CCc1ccccn1)N1CCCC(CNC(=O)C2(c3ccc(Cl)cc3)CC2)C1 (configuration not stated) | 0.644 | – |
| O=C(Cn1nnnc1CN1CCCC1)N1CCN(Cc2cccnc2)CC1 | – | 0.784 |
| CN(CC1CCCCO1)C(=O)c1cn(Cc2ccc(Cl)cc2)nn1 (configuration not stated) | 0.009 | – |
| O=C(c1ccc(=O)[nH]n1)N1CCc2onc(-c3cccc4ccccc34)c2C1 | – | 0.006 |
| O=C(NCc1ccco1)N1CCC(C2CCN(CCc3ccccc3)C2)CC1 (configuration not stated) | – | 0.515 |

| SMILES | bacterial growth OD600 (polymyxin B 1 µg/mL) | bacterial growth OD600 (polymyxin B 0.75 µg/mL) |
| --- | --- | --- |
| c1ccc(CCC2CN(Cc3cccs3)CCO2)cc1 (configuration not stated) | – | 0.645 |
| CCOC(=O)N1CCN(C2CCCN(C(=O)c3cc4cc(F)ccc4[nH]3)C2)CC1 (configuration not stated) | 0.865 | – |
| CCNC(=O)c1cn(CCc2ccccc2)cc(C(=O)N2CCCC(c3ccccc3)CC2)c1=O (configuration not stated) | – | 0.899 |
| O=C(NC1CCCCCCC1)C1CCC(=O)N(Cc2ccc(Cl)cc2)C1 (configuration not stated) | 0.049 | – |
| CCCCn1c(CN2CCOCC2)cnc1S(=O)(=O)CC | 1 | – |
| OCC1CCCCN1CCNc1nc2nonc2nc1N1CCCC1 (configuration not stated) | – | 0.785 |
| COc1ccccc1CC(=O)NC1CC(=O)N(Cc2ccc(F)cc2)C1 (configuration not stated) | 0.857 | – |
| COc1ccccc1CC(=O)Nc1cnn(CC(=O)NCCc2ccc(C)cc2)c1 | – | 0.837 |
| CN(Cc1ccsc1)c1ccc(C(=O)NCCC2CCCCN2C)cn1 (configuration not stated) | 1.11 | – |
| CC(=O)c1cc(CN2CCC(CCC(=O)N3CCN(c4ccccc4)CC3)CC2)cs1 | 0.967 | – |
| CN(Cc1nc(Cc2ccccc2Cl)no1)CC1COc2ccccc2O1 (configuration not stated) | 0.779 | – |
| COC(=O)CCC(=O)N1CCC2(CCCN(Cc3ccccc3F)C2=O)C1 (configuration not stated) | 1.05 | – |
| CN(C)C(=O)CCC(=O)N1CCCC(CCc2cccc(C(F)(F)F)c2)C1 (configuration not stated) | – | 0.26 |
| CCn1cc(CNC(=O)CCC2(Cc3ccc(OC)c4ccccc34)CCC(=O)N2)cn1 (configuration not stated) | – | 0.903 |
| O=C(NC1CCC1)c1cc(COc2ccc(F)cc2F)[nH]n1 | – | 0.717 |
| CCOc1ccc2nc(N3CCCN(Cc4ccccc4O)CC3)nc(C)c2c1 | – | 0.766 |

Reformatted: two of the compounds above
CCOC(=O)N1CCN(C2CCCN(C(=O)c3cc4cc(F)ccc4[nH]3)C2)CC1 (configuration not stated)
  bacterial growth OD600 (polymyxin B 1 µg/mL): 0.865
CCNC(=O)c1cn(CCc2ccccc2)cc(C(=O)N2CCCC(c3ccccc3)CC2)c1=O (configuration not stated)
  bacterial growth OD600 (polymyxin B 0.75 µg/mL): 0.899
